According to publication doi:10.1101/2025.11.17.688780:
No constants are given. Whether binding was seen depends on the method and setting. In cells and extracts the contact can be indirect. Some entries that bind do so weakly or less than the wild type. Where a sequence is shown, tags or fusion partners need not be part of it.

Target: T1, Brn1-V5 (S. cerevisiae) (UniProt P38170)
T1 sequence: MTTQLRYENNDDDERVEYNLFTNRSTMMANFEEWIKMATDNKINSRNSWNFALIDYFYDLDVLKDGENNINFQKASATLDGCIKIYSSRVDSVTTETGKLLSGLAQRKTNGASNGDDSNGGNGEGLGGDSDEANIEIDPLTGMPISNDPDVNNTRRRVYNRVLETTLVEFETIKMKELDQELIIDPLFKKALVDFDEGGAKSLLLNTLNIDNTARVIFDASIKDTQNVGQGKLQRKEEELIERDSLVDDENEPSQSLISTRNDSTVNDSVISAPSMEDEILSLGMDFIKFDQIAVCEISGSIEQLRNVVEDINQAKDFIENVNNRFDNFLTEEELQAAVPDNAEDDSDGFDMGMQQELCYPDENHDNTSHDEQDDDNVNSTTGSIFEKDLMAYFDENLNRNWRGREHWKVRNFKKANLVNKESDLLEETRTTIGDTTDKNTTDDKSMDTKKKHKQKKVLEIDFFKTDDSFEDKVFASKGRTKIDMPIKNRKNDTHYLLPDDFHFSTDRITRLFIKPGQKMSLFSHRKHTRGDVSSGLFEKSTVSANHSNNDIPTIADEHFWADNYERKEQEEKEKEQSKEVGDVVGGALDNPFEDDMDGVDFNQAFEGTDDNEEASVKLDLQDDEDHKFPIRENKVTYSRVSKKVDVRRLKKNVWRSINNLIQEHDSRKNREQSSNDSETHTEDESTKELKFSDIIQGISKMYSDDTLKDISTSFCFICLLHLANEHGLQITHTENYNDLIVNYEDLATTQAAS
Assay: co-IP

binding: binds
B1: Smc2 K38I, HA tagged (protein, UniProt P38989 1-1170)
chain: MKVEELIIDGFKSYATRTVITDWDPQFNAITGLNGSGISNILDAICFVLGIASMSTVRASSLQDLIYKRGQAGVTKASVTIVFDNTDKSNSPIGFTNSPQISVTRQVVLGGTSKYLINGHRAPQQSVLQLFQSVQLNINNPNFLIMQGKITKVLNMKPSEILSLIEEAAGTKMFEDRREKAERTMSKKETKLQENRTLLTEEIEPKLEKLRNEKRMFLEFQSTQTDLEKTERIVVSYEYYNIKHKHTSIRETLENGETRMKMLNEFVKKTSEEIDSLNEDVEEIKLQKEKELHKEGTISKLENKENGLLNEISRLKTSLSIKVENLNDTTEKSKALESEIASSSAKLIEKKSAYANTEKDYKMVQEQLSKQRDLYKRKEELVSTLTTGISSTGAADGGYNAQLAKAKTELNEVSLAIKKSSMKMELLKKELLTIEPKLKEATKDNELNVKHVKQCQETCDKLRARLVEYGFDPSRIKDLKQREDKLKSHYYQTCKNSEYLKRRVTNLEFNYTKPYPNFEASFVHGVVGQLFQIDNDNIRYATALQTCAGGRLFNVVVQDSQTATQLLERGRLRKRVTIIPLDKIYTRPISSQVLDLAKKIAPGKVELAINLIRFDESITKAMEFIFGNSLICEDPETAKKITFHPKIRARSITLQGDVYDPEGTLSGGSRNTSESLLVDIQKYNQIQKQIETIQADLNHVTEELQTQYATSQKTKTIQSDLNLSLHKLDLAKRNLDANPSSQIIARNEEILRDIGECENEIKTKQMSLKKCQEEVSTIEKDMKEYDSDKGSKLNELKKELKLLAKELEEQESESERKYDLFQNLELETEQLSSELDSNKTLLHNHLKSIESLKLENSDLEGKIRGVEDDLVTVQTELNEEKKRLMDIDDELNELETLIKKKQDEKKSSELELQKLVHDLNKYKSNTNNMEKIIEDLRQKHEFLEDFDLVRNIVKQNEGIDLDTYRERSKQLNEKFQELRKKVNPNIMNMIENVEKKEAALKTMIKTIEKDKMKIQETISKLNEYKRETLVKTWEKVTLDFGNIFADLLPNSFAKLVPCEGKDVTQGLEVKVKLGNIWKESLIELSGGQRSLIALSLIMALLQFRPAPMYILDEVDAALDLSHTQNIGHLIKTRFKGSQFIVVSLKEGMFANANRVFRTRFQDGTSVVSIM
